Data as given in PubChem BioAssay AID1259405 (NCATS, 2018).

Test: 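Knock-downs that lift recombinant protein yield in hamster ovary cells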 (primary screen)
Cells: Chinese hamster CHO-K1 ovary cells with stable secreted eGFP expression
Knock-down reagent: single siRNA against mouse genes, 0.8 pmol siRNA per well (2 µl of 400 nM stock)
Time to read-out: 3 days
Measured: 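Percent of the per-plate non-targeting control median for intracellular GFP per well by laser scanning cytometry and for cell viability by ATP luminescence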
Reading the numbers: GFP, % of control: higher = more GFP per well, higher productivity
Active means: 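a knock-down is called active if GFP reaches 120% or more of non-targeting control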
In all, the deposit lists about 50,000 reagents; shown is a random part of them. In the full data, about 4,000 (8%) are marked active. 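Mouse siRNA library applied to hamster cells; one well for each siRNA.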 The numbers tell different reagents against one gene apart. Not all columns of the deposit are shown. Reagent sequences are not shown.

GFP, % of control, by gene and reagent
Sash1 (GeneID 70097): #1 87.3 inactive; #2 106 inactive; #3 85.2 inactive
Gtpbp6 (GeneID 107999): #1 63.3 inactive; #2 125 active; #3 124 active
Dnal4 (GeneID 54152): #1 109 inactive; #2 66 inactive
Dusp11 (GeneID 72102): #1 74 inactive; #2 79.2 inactive; #3 98.4 inactive
Elp2 (GeneID 58523): #1 115 inactive; #2 65.7 inactive; #3 65 inactive
Cyb5r4 (GeneID 266690): #1 72.7 inactive; #2 123 active; #3 16.2 inactive
Sap18 (GeneID 20220): #1 97.7 inactive; #2 77.3 inactive
Gpn3 (GeneID 68080): #1 105 inactive; #2 75.2 inactive; #3 64.4 inactive
Slc26a3 (GeneID 13487): #1 45.9 inactive; #2 98.7 inactive; #3 76.7 inactive
Slc3a1 (GeneID 20532): #1 95.6 inactive; #2 76.4 inactive; #3 72.3 inactive
Sac3d1 (GeneID 66406): #1 95.8 inactive; #2 164 active; #3 104 inactive; #4 225 active; #5 81.4 inactive; #6 82 inactive

Part of the list above, reformatted:
Elp2 (GeneID 58523) #2
- GFP, % of control: 65.7
- outcome: inactive

Elp2 (GeneID 58523) #3
- GFP, % of control: 65
- outcome: inactive

Cyb5r4 (GeneID 266690) #1
- GFP, % of control: 72.7
- outcome: inactive

Cyb5r4 (GeneID 266690) #2
- GFP, % of control: 123
- outcome: active
